{"source": "PubChem BioAssay AID1159578 (Peter MacCallum Cancer Centre, 2015)", "test": "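Knock-downs that alter how fast lymphatic endothelial cells migrate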 (primary screen)", "cell system": "human lymphatic endothelial cells", "knock-down reagent": "siRNA pool against human genes, 40 nM", "duration": "48 h after transfection", "measurement": "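Cells stained with dye and imaged after a scratch; covered wound area and nuclei counted, duplicates averaged, migration set against mock wells and turned into a robust z-score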", "scale": "migration robust z-score: higher = faster migration into the scratch; nuclei per well: higher = more cells in the well", "call rule": "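Pools averaging fewer than 3300 nuclei are never called; remaining pools count as changed when migration robust z lies outside -2 to 2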", "meaning of the calls": "active = migration changed; inactive = no migration change, or too few cells", "note": "In all, the deposit lists about 18,000 reagents; this is a part drawn at random. In the full data, about 1,030 (5.7%) are marked active. 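Inactive calls also include pools with fewer than 3300 nuclei, whose migration was not assessed.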 The raw values are shown without normalisation. Not all columns of the deposit are shown."}
{"gene symbol": "YRDC (yrdC N6-threonylcarbamoyltransferase domain containing)", "migration robust z-score": -0.82, "migration class with cell-count check": "under 3300 nuclei; migration not judged", "nuclei per well, duplicate mean": 3127, "activity call": "inactive"}
{"gene symbol": "TSPY2 (testis specific protein Y-linked 2)", "migration robust z-score": -0.9, "migration class with cell-count check": "migration z between -2 and 2; enough cells", "nuclei per well, duplicate mean": 4400, "activity call": "inactive"}
{"gene symbol": "CT45A2 (cancer/testis antigen family 45 member A2)", "migration robust z-score": 0.79, "migration class with cell-count check": "migration z between -2 and 2; enough cells", "nuclei per well, duplicate mean": 5588, "activity call": "inactive"}
{"gene symbol": "CRHR1 (corticotropin releasing hormone receptor 1)", "migration robust z-score": -0.36, "migration class with cell-count check": "migration z between -2 and 2; enough cells", "nuclei per well, duplicate mean": 5440, "activity call": "inactive"}
{"gene symbol": "SFXN2 (sideroflexin 2)", "migration robust z-score": -0.31, "migration class with cell-count check": "migration z between -2 and 2; enough cells", "nuclei per well, duplicate mean": 5584, "activity call": "inactive"}
{"gene symbol": "TAS2R43 (taste 2 receptor member 43)", "migration robust z-score": -0.34, "migration class with cell-count check": "migration z between -2 and 2; enough cells", "nuclei per well, duplicate mean": 6128, "activity call": "inactive"}
{"gene symbol": "PCDHGB2 (protocadherin gamma subfamily B, 2)", "migration robust z-score": -0.17, "migration class with cell-count check": "migration z between -2 and 2; enough cells", "nuclei per well, duplicate mean": 5861, "activity call": "inactive"}
{"gene symbol": "TPD52L2 (TPD52 like 2)", "migration robust z-score": 0.94, "migration class with cell-count check": "migration z between -2 and 2; enough cells", "nuclei per well, duplicate mean": 5796, "activity call": "inactive"}
{"gene symbol": "AGPS (alkylglycerone phosphate synthase)", "migration robust z-score": -0.02, "migration class with cell-count check": "migration z between -2 and 2; enough cells", "nuclei per well, duplicate mean": 5488, "activity call": "inactive"}
{"gene symbol": "CACNA2D1", "migration robust z-score": -2.3, "migration class with cell-count check": "migration z below -2; enough cells", "nuclei per well, duplicate mean": 4483, "activity call": "active"}
{"gene symbol": "PARPBP (PARP1 binding protein)", "migration robust z-score": 1.53, "migration class with cell-count check": "migration z between -2 and 2; enough cells", "nuclei per well, duplicate mean": 5452, "activity call": "inactive"}
{"gene symbol": "OR10V1 (olfactory receptor family 10 subfamily V member 1)", "migration robust z-score": -1.64, "migration class with cell-count check": "migration z between -2 and 2; enough cells", "nuclei per well, duplicate mean": 6098, "activity call": "inactive"}
{"gene symbol": "MAS1L (MAS1 proto-oncogene like, G protein-coupled receptor)", "migration robust z-score": 0.96, "migration class with cell-count check": "migration z between -2 and 2; enough cells", "nuclei per well, duplicate mean": 7348, "activity call": "inactive"}
{"gene symbol": "ATP6V0A4 (ATPase H+ transporting V0 subunit a4)", "migration robust z-score": -0.48, "migration class with cell-count check": "migration z between -2 and 2; enough cells", "nuclei per well, duplicate mean": 7596, "activity call": "inactive"}
{"gene symbol": "TRIM74 (tripartite motif containing 74)", "migration robust z-score": 0.42, "migration class with cell-count check": "migration z between -2 and 2; enough cells", "nuclei per well, duplicate mean": 6401, "activity call": "inactive"}
{"gene symbol": "ZIC2 (Zic family zinc finger 2)", "migration robust z-score": 0.24, "migration class with cell-count check": "migration z between -2 and 2; enough cells", "nuclei per well, duplicate mean": 6362, "activity call": "inactive"}
{"gene symbol": "AQP5 (aquaporin 5)", "migration robust z-score": 0.18, "migration class with cell-count check": "migration z between -2 and 2; enough cells", "nuclei per well, duplicate mean": 5067, "activity call": "inactive"}
{"gene symbol": "MYO15A (myosin XVA)", "migration robust z-score": 0.99, "migration class with cell-count check": "migration z between -2 and 2; enough cells", "nuclei per well, duplicate mean": 5071, "activity call": "inactive"}
{"gene symbol": "ENTREP3 (endosomal transmembrane epsin interactor 3)", "migration robust z-score": 1.31, "migration class with cell-count check": "migration z between -2 and 2; enough cells", "nuclei per well, duplicate mean": 6164, "activity call": "inactive"}
{"gene symbol": "STARD7-AS1 (STARD7 antisense RNA 1)", "migration robust z-score": -1.45, "migration class with cell-count check": "migration z between -2 and 2; enough cells", "nuclei per well, duplicate mean": 4942, "activity call": "inactive"}
{"gene symbol": "PRELID1 (PRELI domain containing 1)", "migration robust z-score": 0.84, "migration class with cell-count check": "migration z between -2 and 2; enough cells", "nuclei per well, duplicate mean": 5185, "activity call": "inactive"}
{"gene symbol": "H2AC16 (H2A clustered histone 16)", "migration robust z-score": -0.38, "migration class with cell-count check": "migration z between -2 and 2; enough cells", "nuclei per well, duplicate mean": 4190, "activity call": "inactive"}
{"gene symbol": "POLR2E (RNA polymerase II, I and III subunit E)", "migration robust z-score": -1.48, "migration class with cell-count check": "under 3300 nuclei; migration not judged", "nuclei per well, duplicate mean": 3010, "activity call": "inactive"}
{"gene symbol": "PRRG3 (proline rich and Gla domain 3)", "migration robust z-score": -0.48, "migration class with cell-count check": "migration z between -2 and 2; enough cells", "nuclei per well, duplicate mean": 4895, "activity call": "inactive"}
{"gene symbol": "STMN4 (stathmin 4)", "migration robust z-score": -1.3, "migration class with cell-count check": "migration z between -2 and 2; enough cells", "nuclei per well, duplicate mean": 5776, "activity call": "inactive"}
{"gene symbol": "HOXC10 (homeobox C10)", "migration robust z-score": 0.12, "migration class with cell-count check": "migration z between -2 and 2; enough cells", "nuclei per well, duplicate mean": 7660, "activity call": "inactive"}
{"gene symbol": "CLTB (clathrin light chain B)", "migration robust z-score": -1.99, "migration class with cell-count check": "under 3300 nuclei; migration not judged", "nuclei per well, duplicate mean": 2638, "activity call": "inactive"}

Entries listed so far with an active call (1):
{"gene symbol": "CACNA2D1", "migration robust z-score": -2.3, "migration class with cell-count check": "migration z below -2; enough cells", "nuclei per well, duplicate mean": 4483, "activity call": "active"}
